In PMC10286715:
These are yes or no findings as the source states them, for the method shown. A result given as binding can be weak or reduced; the word gives no strength. Where a sequence is shown, tags or fusion partners need not be part of it.

Target: T1, StrepTagII-protein S16-His10 (S. lividans) (UniProt O86868)
T1 sequence: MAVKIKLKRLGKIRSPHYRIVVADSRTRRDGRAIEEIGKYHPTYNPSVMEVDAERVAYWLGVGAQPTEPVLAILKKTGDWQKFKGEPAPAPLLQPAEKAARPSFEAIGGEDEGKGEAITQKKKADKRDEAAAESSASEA
Assay: pull-down; coelution assay: StrepTagII-protein S16-His10 (0.2 mg/mL) mixed with the SLP protein (SlpS-His6 0.1 mg/mL) in 20 mM HEPES-NaOH pH 7.4, 5 mM MgCl2, 150 mM NaCl, 10% glycerol, room temperature 15 min; captured on a streptavidin column, washed with PBS, eluted with 0.1 M glycine pH 2.5; Western blot (anti-His6, streptavidin-HRP); both purified

Substance	binding
recombinant Slp5 (coelution assay) (S. lividans)	no binding
recombinant Slp7 (coelution assay) (S. lividans)	no binding
SlpS-His6 (S. lividans)	binds
recombinant Slp8 (coelution assay) (S. lividans)	no binding
